Data taken from patent publication US12115140B2, “Method of treating adenoid cystic carcinoma” (THE TRUSTEES OF COLUMBIA UNIVERSITY IN THE CITY OF NEW YORK, priority 2020, dated 2024).
Some entries share one result that the patent states for a list of compounds.

Tested on: CD49f^low, KIT^+ (ductal-like) and CD49f^high, KIT^neg (myoepithelial-like) cells of human ACCs
Assay: Flow cytometry of short-term primary cultures from ACC PDX lines: relative content of ductal-like and myoepithelial-like cells
Assay type: cell-based
Settings: FIGS. 1A-1F, 2A-2D, 3A-3I
Source text: From a histological point of view, ACCs are usually characterized by a “bi-phasic differentiation” (i.e., the malignant tissues contain two distinct cell populations, which are commonly referred to as “myoepithelial-like” and “ductal-like” cells). A combination of cell surface markers (CD49f, KIT) have been discovered which enable the differential purification and accurate quantification of the two populations using fluorescence activated cell sorting (FACS). […]
FIGS. 1A-1F and 2A-2D illustrate the in vitro anti-tumor activity of BMS493 against human ACCs. FIGS. 1A and 1B show the results of a short-term primary culture from a patient-derived xenograft (PDX) line representative of human ACCs with “cribriform” histology (ACCX5M1) treated in vitro with BMS493 (10 μM) for 7 days and then analyzed by flow cytometry. FIGS. 1C and 1D show the results of a short-term primary culture from a patient-derived xenograft (PDX) line representative of human ACCs with “cribriform” histology (SGTX6) treated in vitro with BMS493 (10 μM) for 7 days and then analyzed by flow cytometry. FIGS. 1E and 1F show the results of a short-term primary culture from a patient-derived xenograft (PDX) line representative of human ACCs with “cribriform” histology (ACCX6) treated in vitro with BMS493 (10 μM) for 7 days and then analyzed by flow cytometry. […]

Structure (SMILES): Cc1ccc(C2=CCC(C)(C)c3ccc(C#Cc4ccc(C(=O)O)cc4)cc32)cc1 [AGN193109, 4-[2-[5,6-Dihydro-5,5-dimethyl-8-(4-methylphenyl)-2-naphthalenyl]ethynyl]benzoic acid]
- concentration range shown to be effective in vitro: 1 to 10 µM

Structure (SMILES): CC1(C)CC=C(C#Cc2ccccc2)c2cc(/C=C/c3ccc(C(=O)O)cc3)ccc21 [BMS493, 4-[(1E)-2-[5,6-Dihydro-5,5-dimethyl-8-(2-phenylethynyl)-2-naphthalenyl]ethenyl]benzoic acid]
- concentration range shown to be effective in vitro: 1 to 10 µM
